# This is one part of the list.
# B1: Erv46-EDTA (Saccharomyces cerevisiae), P39727 (protein)
# chain: MKFLVNVALVFMVVYISYIYAAAPEHHHHHHDYDIPTTENLYFQGAMDSVVTRPQLVVDRDRHAKLELNMDVTFPSMPCDLVNLDIMDDSGEMQLDILDAGFTMSRLNSEGRPVGDATELHVGGNGDGTAPVNNDPNYCGPCYGAKDQSQNENLAQEEKVCCQDCDAVRSAYLEAGWAFFDGKNIEQCEREGYVSKINEHLNEGCRIKGSAQINRIQGNLHFAPGKPYQNAYGHFHDTSLYDKTSNLNFNHIINHLSFGKPIQSHSKLLGNDKRHGGAVVATSPLDGRQVFPDRNTHFHQFSYFAKIVPTRYEYLDNVVIETAQFSATFHSRPLAGGRDKDHPNTLHVRGGIPGMFVFFEMSPLKVINKEQ
# Columns and labels:
# Assay in all cases: glycan array binding signal (z-score within array); higher = stronger binding
# Conditions in all cases: glycan notation: IUPAC condensed, linker removed
# [1] = target: GlcNAc(b1-3)Gal(b1-4)GlcNAc(b1-3)Gal(b1-4)GlcNAc(b1-3)Gal(b1-4)GlcNAc(b1-3)Gal(b1-4)GlcNAc(b1-2)[GlcNAc(b1-3)Gal(b1-4)GlcNAc(b1-3)Gal(b1-4)GlcNAc(b1-3)Gal(b1-4)GlcNAc(b1-3)Gal(b1-4)GlcNAc(b1-6)]Man(a1-6)[GlcNAc(b1-3)Gal(b1-4)GlcNAc(b1-3)Gal(b1-4)GlcNAc(b1-3)Gal(b1-4)GlcNAc(b1-3)Gal(b1-4)GlcNAc(b1-2)Man(a1-3)]Man(b1-4)GlcNAc(b1-4)[Fuc(a1-6)]GlcNAc
# How it was run: (§1)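 Columns mapping to the same glycan were averaged after glycan names were converted to IUPAC-condensed notation. The data come from 3228 arrays in the Consortium for Functional Glycomics database, limited to those with an available protein sequence. Binding is reported as a within-array Z-score averaged across arrays of one protein sequence and across linkers.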
# [2] = target: GlcNAc(b1-3)Gal(b1-4)GlcNAc(b1-3)Gal(b1-4)GlcNAc(b1-3)GalNAc
# How it was run: as §1
# [3] = target: GlcNAc(b1-3)Gal(b1-4)GlcNAc(b1-3)GalNAc
# How it was run: as §1
# [4] = target: GlcNAc(b1-3)Gal(b1-4)GlcNAc(b1-3)[GlcNAc(b1-3)Gal(b1-4)GlcNAc(b1-3)]GalNAc
# How it was run: as §1
# [5] = target: GlcNAc(b1-3)Gal(b1-4)GlcNAc(b1-6)[Gal(b1-3)]GalNAc
# How it was run: as §1
# [6] = target: GlcNAc(b1-3)Gal(b1-4)GlcNAc(b1-6)[GlcNAc(b1-3)Gal(b1-3)]GalNAc
# How it was run: as §1
# [7] = target: GlcNAc(b1-3)Gal(b1-4)GlcNAc(b1-6)[GlcNAc(b1-3)]Gal(b1-4)GlcNAc
# How it was run: as §1
# [8] = target: GlcNAc(b1-3)GalNAc
# How it was run: as §1
# [9] = target: GlcNAc(b1-3)Man
# How it was run: as §1
# [10] = target: GlcNAc(b1-3)[GlcNAc(b1-4)][GlcNAc(b1-6)]GlcNAc
# How it was run: as §1
# [11] = target: GlcNAc(b1-3)[GlcNAc(b1-6)]Gal(b1-4)GlcNAc
# How it was run: as §1
# [12] = target: GlcNAc(b1-3)[GlcNAc(b1-6)]GalNAc
# How it was run: as §1
# [13] = target: GlcNAc(b1-4)Gal(b1-4)GlcNAc
# How it was run: as §1
# [14] = target: GlcNAc(b1-4)GlcNAc
# How it was run: as §1
# [15] = target: GlcNAc(b1-4)GlcNAc(b1-4)GlcNAc
# How it was run: as §1
# [16] = target: GlcNAc(b1-4)GlcNAc(b1-4)GlcNAc(b1-4)GlcNAc(b1-4)GlcNAc
# How it was run: as §1
# [17] = target: GlcNAc(b1-4)GlcNAc(b1-4)GlcNAc(b1-4)GlcNAc(b1-4)GlcNAc(b1-4)GlcNAc
# How it was run: as §1
# [18] = target: GlcNAc(b1-4)[GlcNAc(b1-6)]GalNAc
# How it was run: as §1
# [19] = target: GlcNAc(b1-6)Gal(b1-4)GlcNAc
# How it was run: as §1
# [20] = target: GlcNAc(b1-6)GalNAc
# How it was run: as §1
# [21] = target: GlcNAc6S(b1-3)Gal(b1-4)GlcNAc
# How it was run: as §1
# [22] = target: Kdn(a2-3)Gal(b1-3)GalNAc
# How it was run: as §1
# [23] = target: Kdn(a2-3)Gal(b1-3)GlcNAc
# How it was run: as §1
# [24] = target: Kdn(a2-3)Gal(b1-4)Glc
# How it was run: as §1
# [25] = target: Kdn(a2-3)Gal(b1-4)GlcNAc
# How it was run: as §1
# [26] = target: Kdn(a2-3)Gal(b1-4)[Fuc(a1-3)]GlcNAc
# How it was run: as §1
# [27] = target: Kdn(a2-6)Gal(b1-4)GlcNAc
# How it was run: as §1
# [28] = target: Man(a1-2)Man(a1-2)Man(a1-3)Man
# How it was run: as §1
# [29] = target: Man(a1-2)Man(a1-2)Man(a1-6)[Man(a1-3)]Man
# How it was run: as §1
# [30] = target: Man(a1-2)Man(a1-3)Man
# How it was run: as §1
# [31] = target: Man(a1-2)Man(a1-3)[Man(a1-2)Man(a1-6)]Man
# How it was run: as §1
# [32] = target: Man(a1-2)Man(a1-3)[Man(a1-2)Man(a1-6)]Man(a1-6)[Man(a1-2)Man(a1-2)Man(a1-3)]Man
# How it was run: as §1
# [33] = target: Man(a1-2)Man(a1-3)[Man(a1-2)Man(a1-6)]Man(a1-6)[Man(a1-2)Man(a1-2)Man(a1-3)]Man(b1-4)GlcNAc(b1-4)GlcNAc
# How it was run: as §1
# [34] = target: Man(a1-2)Man(a1-3)[Man(a1-6)]Man(a1-6)[Man(a1-2)Man(a1-3)]Man(b1-4)GlcNAc(b1-4)GlcNAc
# How it was run: as §1
# [35] = target: Man(a1-2)Man(a1-6)[Man(a1-3)]Man(a1-6)[Man(a1-2)Man(a1-2)Man(a1-3)]Man
# How it was run: as §1
# [36] = target: Man(a1-2)Man(a1-6)[Man(a1-3)]Man(a1-6)[Man(a1-2)Man(a1-2)Man(a1-3)]Man(b1-4)GlcNAc(b1-4)GlcNAc
# How it was run: as §1
# [37] = target: Man(a1-3)[Man(a1-6)]Man
# How it was run: as §1
binder,measurement,setting,value
B1,glycan array binding signal (z-score),[1],0.589
same,glycan array binding signal (z-score),[2],-0.526
same,glycan array binding signal (z-score),[3],0.565
same,glycan array binding signal (z-score),[4],0.221
same,glycan array binding signal (z-score),[5],-0.042
same,glycan array binding signal (z-score),[6],-0.145
same,glycan array binding signal (z-score),[7],-0.431
same,glycan array binding signal (z-score),[8],0.053
same,glycan array binding signal (z-score),[9],-1.04
same,glycan array binding signal (z-score),[10],-0.123
same,glycan array binding signal (z-score),[11],-0.509
same,glycan array binding signal (z-score),[12],-0.008
same,glycan array binding signal (z-score),[13],-0.698
same,glycan array binding signal (z-score),[14],-0.626
same,glycan array binding signal (z-score),[15],-0.614
same,glycan array binding signal (z-score),[16],-0.678
same,glycan array binding signal (z-score),[17],-0.586
same,glycan array binding signal (z-score),[18],-0.451
same,glycan array binding signal (z-score),[19],-1.08
same,glycan array binding signal (z-score),[20],-0.565
same,glycan array binding signal (z-score),[21],-0.923
same,glycan array binding signal (z-score),[22],-0.11
same,glycan array binding signal (z-score),[23],-0.397
same,glycan array binding signal (z-score),[24],0.032
same,glycan array binding signal (z-score),[25],-0.571
same,glycan array binding signal (z-score),[26],1.21
same,glycan array binding signal (z-score),[27],-0.272
same,glycan array binding signal (z-score),[28],0.434
same,glycan array binding signal (z-score),[29],-0.376
same,glycan array binding signal (z-score),[30],0.221
same,glycan array binding signal (z-score),[31],-0.63
same,glycan array binding signal (z-score),[32],-0.372
same,glycan array binding signal (z-score),[33],-0.41
same,glycan array binding signal (z-score),[34],-0.595
same,glycan array binding signal (z-score),[35],-0.002
same,glycan array binding signal (z-score),[36],-0.511
same,glycan array binding signal (z-score),[37],-0.485

# Part of the list above, bar-delimited.
binder | measurement | setting | value
B1 | glycan array binding signal (z-score) | [6] | -0.145
same | glycan array binding signal (z-score) | [35] | -0.002

# Source: the supplement of paper PMC8728848
